Here are results for 31 compounds from US6887656B2, “Color photographic element containing improved heterocyclic speed enhancing compound” (Eastman Kodak Company, priority 2003, dated 2005).

Series [1] is described as follows: Relative speed (light sensitivity) of multilayer film coatings, stepped neutral exposure, C41 process. The settings on record: 0.0806 mmol/m^2. The protocol:
(§1) Surfactants, coating aids, emulsion addenda (including 4-hydroxy-6-methyl-1,3,3a,7-tetraazaindene), sequestrants, thickeners, lubricants, matte and tinting dyes were added to the appropriate layers as is common in the art.
(§2) Layer 9 (Fast magenta layer): two parts mixed together at a 1:1 ratio just prior to coating;
(§3) Part A (dispersion melt): M-1 at 0.104; DIR-5 at 0.011; ILS-1 at 0.014 and gelatin at 0.420 and Part B (emulsion melt): a green-sensitized (with a mixture of GSD-1 and GSD-2) silver iodobromide tabular emulsion (2.90×0.13 μm, 3.7 mol % iodide) at 1.240; MC-2 at 0.021; DIR-6 at 0.003 and gelatin at 1.076. In some examples as noted, both parts were mixed together and stirred for at least 1 hr before coating.
(§4) All comparative and inventive heterocycles were dispersed in twice their own weight in N,N-dibutyllauramide unless otherwise noted. All parts containing the comparative or inventive heterocycles were stirred at 40 deg C. for at least 1 h before coating.
(§5) For comparative and inventive samples ML-11 to ML-41, 0.0806 mmol/m^2 (except for Compound AD that was at 0.0765 mmol/m^2 and Compound D that was at 0.0749 mmol/m^2) of the comparative or inventive heterocycle was added to either Part A or B of Layer 9 as noted.
(§6) To determine speed these multilayer coatings were given a stepped neutral exposure and processed in the KODAK FLEXICOLOR™ (C41) process as described in British Journal of Photography Annual, 1988, pp 196-198. Relative speed or light sensitivity (given in terms of fraction of a stop) was determined by comparing the exposure point +0.15 green density units above green Dmin to the check position without any heterocycle. A larger, more positive number means increased speed; a negative number means a loss in speed. To determine interimage, these multilayer coatings were given a stepped exposure in the red record while the green and blue layers were simultaneously given an uniform, nonimagewise flash exposure so that the green density (GminR) where there was no red record development (minimum red exposure point) was close to 1.0. Then, a red exposure point was determined that was 0.6 logE units less than the point that was 0.15 red density units above red Dmin. The green density (GR) was read at this red exposure point. Interimage is the difference in green density GR—GminR and represents the decrease in green layer development as a function of red exposure. Delta Interimage is the difference in interimage between the sample containing the heterocycle and the check sample without any heterocycle.

A short description of series [2]: Red-onto-green interimage of multilayer film coatings (Delta Interimage vs check). On the procedure: as §1, §2, §3, §4, §5, §6
Where [3] appears, read: Layer 9 Method A (addendum in dispersion melt, dual melts), vs check without heterocycle, +0.15 green density above Dmin.
Where [4] appears, read: Layer 9 Method A, green density difference GR-GminR vs check, more negative = more interimage.
The mark [5] stands for this setting: Layer 9 Method A + B (single melt-hold, stirred at least 1 h at 40 degrees C), vs check.
Where [6] appears, read: Layer 9 Method A + B (single melt-hold), vs check.
The mark [7] stands for this setting: Layer 9 Method B (addendum premixed with emulsion melt, dual melts), vs check.

For `CCCCCCCCCCCCCCCc1cccc(OC(CC)C(=O)Nc2nnc(NC(=O)CCCCC)s2)c1` (stereo not drawn) [AA], in series [1] (setting [3]), the Speed result is listed as “+0.42 stop”. In series [2] (setting [4]), the “Delta Interimage” value is “+0.009”.
As to `CCCCCCCCCCCCCCCc1cccc(OC(CC)C(=O)Nc2nnc(N)s2)c1` (stereo not drawn) [AC], the Speed result in series [1] (setting [3]) is on record as “+0.40 stop”. Moreover, the “Delta Interimage” value in series [2] (setting [4]) is “+0.029”.
Turning to `CCCCCCSc1nnc(NC(=O)COc2ccc(C(C)(C)CC)cc2)s1` [AE], the Speed result in series [1] (setting [3]) is listed as “+0.20 stop”. Moreover, the “Delta Interimage” value in series [2] (setting [4]) is −0.010.
With `CCCCCCCCCCCCCCCc1cccc(OCC(=O)Nc2nnc(SCCCC)n2CCCC)c1` [AG], the Speed result is listed as “+0.27 stop” in series [1] (setting [3]) and “+0.23 stop” in series [1] (setting [5]). Moreover, the results for the “Delta Interimage” value in series [2] (setting [6]) and in series [2] (setting [4]) were “+0.005” and “+0.003”, respectively.
For `CCCCCCCCCCCCCCCc1cccc(OC(CCCC)C(=O)Nc2nnc(SCC)s2)c1` (stereo not drawn) [AI], the Speed result is “+0.45 stop” in series [1] (setting [3]) and “+0.33 stop” in series [1] (setting [7]). The “Delta Interimage” value is “+0.028” in series [2] (setting [4]) and “+0.028” in series [2] (Layer 9 Method B, vs check).
In the case of `CCC(Oc1ccc(C(C)(C)CC)cc1C(C)(C)CC)C(=O)Nc1ccc(CCCc2nnc3n2N=C(C)CC(=O)N3)cc1` (stereo not drawn) [AL], in series [1] (setting [3]), the Speed entry is reported as “+0.50 stop”. Besides, the “Delta Interimage” value in series [2] (setting [4]) is “+0.023”.
With `CCCCCCSc1nnc(NC(=O)C(CC)Oc2ccc(C(C)(C)CC)cc2C(C)(C)CC)s1` (stereo not drawn) [AM], the results for the Speed entry in series [1] (setting [3]) and in series [1] (setting [7]) were “+0.28 stop” and “+0.27 stop”, respectively. Also, the “Delta Interimage” value in series [2] (setting [4]) is “+0.004”; in series [2] (Layer 9 Method B, vs check) it was “+0.008”.
For `CCCCCCCCCCCCCCCc1cccc(OC(CC)C(=O)Nc2nnc(SCCCC)n2C)c1` (stereo not drawn) [AU], the Speed result in series [1] (setting [3]) is listed as “+0.23 stop”; in series [1] (setting [5]), “+0.20 stop”. Further, the “Delta Interimage” value in series [2] (setting [6]) and in series [2] (setting [4]) was “+0.010” in each case.
For `CCCCCCCCC(CCCCCC)COc1ncnc2[nH]cnc12` (stereo not drawn) [CH-1, reference compound], the Speed entry in series [1] (setting [3]) is listed as “+0.40 stop”; in series [1] (setting [5]) it was −0.60 stop; in series [1] (setting [7]), −0.47 stop. The “Delta Interimage” value was “+0.015” in series [2] (setting [6]); “+0.035” in series [2] (setting [4]); −0.006 in series [2] (Layer 9 Method B, vs check).
Take `CCC(Oc1ccc(C(C)(C)CC)cc1C(C)(C)CC)C(=O)Nc1nnc(S)s1` (stereo not drawn) [CH-3, reference compound]: the Speed result in series [1] (setting [3]) was “+0.17 stop”; in series [1] (setting [5]) it was −0.53 stop. Also, the “Delta Interimage” value is “+0.015” in series [2] (setting [6]) and “+0.017” in series [2] (setting [4]).
As to `CCCCCCCCCCCCCCCc1cccc(OC(CC)C(=O)Nc2nnc(S)s2)c1` (stereo not drawn) [CH-4, reference compound], the figures for the Speed entry in series [1] (setting [3]) and in series [1] (setting [5]) were “+0.13 stop” and −0.97 stop, respectively. Besides, the “Delta Interimage” value in series [2] (setting [6]) is on record as “+0.020”; in series [2] (setting [4]), “+0.015”.
Regarding `CCCCCCCCCCCCC(Oc1ccc(NS(=O)(=O)CCCC)cc1)c1nnc(S)o1` (stereo not drawn) [CH-5, reference compound], the Speed result is “+0.37 stop” in series [1] (setting [3]) and −0.43 stop in series [1] (setting [5]). In addition, the “Delta Interimage” value in series [2] (setting [6]) is “+0.031”; in series [2] (setting [4]), “+0.022”.
As to `CCCCC(Oc1ccc(C(C)(C)CC)cc1C(C)(C)CC)c1nnc(S)o1` (stereo not drawn) [CH-6, reference compound], in series [1] (setting [5]), the Speed was −0.27 stop. Also, the “Delta Interimage” value in series [2] (setting [6]) is on record as “+0.016”.
As for `CCC(=O)Nc1nnc(S(=O)(=O)N(C)CC)s1` [CH-7, reference compound], in series [1] (setting [3]), the Speed entry is “+0.06 stop”. In addition, the “Delta Interimage” value in series [2] (setting [4]) is recorded as “+0.005”.
In the same order, the values of `CCSc1nnc(NC(=O)COc2ccc(C(C)(C)CC)cc2)s1` [CH-8, reference compound] are “+0.03 stop” and −0.001.
Take `CCSc1nnc(NC(=O)C(CC)Oc2ccc(C(C)(C)C)cc2)s1` (stereo not drawn) [CH-9, reference compound]: the Speed entry in series [1] (setting [3]) is listed as “+0.06 stop”. For the same compound, the “Delta Interimage” value in series [2] (setting [4]) is on record as “+0.018”.
Regarding `CCCCCCCCCCCCCCCc1cccc(OCC(=O)Nc2nnc(S(=O)(=O)CC(CC)CC)s2)c1` [C], the Speed entry in series [1] (setting [3]) is listed as “+0.27 stop”. Also, the “Delta Interimage” value in series [2] (setting [4]) is on record as “+0.024”.
With `CCSc1nnc(NC(=O)COc2ccc(C(C)(C)CC)cc2C(C)(C)CC)s1` [Compound AP], the Speed entry in series [1] (setting [3]) was “+0.27 stop”. In series [2] (setting [4]), the “Delta Interimage” value is reported as −0.007.
`CCCCC(Oc1ccc(C(C)(C)CC)cc1C(C)(C)CC)C(=O)Nc1nnc(SCC(C)CCC)s1` (stereo not drawn) [Compound AR]: the Speed entry in series [1] (setting [3]) was “+0.40 stop”; in series [1] (setting [7]), “+0.27 stop”. In addition, the “Delta Interimage” value in series [2] (setting [4]) is listed as “+0.001”; in series [2] (Layer 9 Method B, vs check), “+0.001”.
Regarding `CCC(Oc1ccc(C(C)(C)CC)cc1C(C)(C)CC)C(=O)Nc1ccc(CCCc2nnc3n2N=C(C)C(C)C(=O)N3)cc1` (stereo not drawn) [Compound AS], the Speed result in series [1] (setting [3]) is recorded as “+0.50 stop”. Besides, the “Delta Interimage” value in series [2] (setting [4]) was “+0.036”.
`CCCCC(Oc1ccc(C(C)(C)CC)cc1)C(=O)Nc1nnc(SCC)s1` (stereo not drawn) [Compound AV]: the Speed entry in series [1] (setting [3]) is recorded as “+0.20 stop”. The “Delta Interimage” value in series [2] (setting [4]) is −0.003.
`CCCCCCCCCCCCCCCc1cccc(OC(CC)C(=O)Nc2nnc(CCCCC)s2)c1` (stereo not drawn) [Compound A]: the Speed result in series [1] (setting [3]) was “+0.42 stop”. Moreover, the “Delta Interimage” value in series [2] (setting [4]) is “+0.018”.
On to `CCCCCCCCC(CCCCCC)CSc1nnc(NC(=O)CCCCC)s1` (stereo not drawn) [Compound B], for which the Speed result is on record as “+0.45 stop” in series [1] (setting [3]) and “+0.23 stop” in series [1] (setting [7]). Besides, the “Delta Interimage” value in series [2] (setting [4]) is listed as −0.003; in series [2] (Layer 9 Method B, vs check) it was −0.002.
As for `CCCCCCCCCCCCSc1nnc(SCCCCCCCC)s1` [Compound H], the Speed result in series [1] (setting [3]) was “+0.20 stop”. In addition, the “Delta Interimage” value in series [2] (setting [4]) is on record as −0.002.
Taken in the same sequence, the figures for `CCCCCCCCCCCCCCCc1cccc(OC(CC)C(=O)Nc2nncs2)c1` (stereo not drawn) [G] were “+0.42 stop” and “+0.005”.
Consider `CCCCCCCCCCCCCCCc1cccc(OCC(=O)Nc2nnc([S+]([O-])CC(CC)CC)s2)c1` (stereo not drawn) [I], for which the Speed entry in series [1] (setting [3]) was “+0.33 stop”. In addition, in series [2] (setting [4]), the “Delta Interimage” value is recorded as “+0.015”.
On to `CCCC(C)CSc1nnc(NC(=O)COc2ccc(C(C)(C)CC)cc2C(C)(C)CC)s1` (stereo not drawn) [P], for which the values for the Speed result in series [1] (setting [3]) and in series [1] (setting [7]) were “+0.48 stop” and “+0.27 stop”, respectively. Also, the “Delta Interimage” value in series [2] (setting [4]) is “+0.022”; in series [2] (Layer 9 Method B, vs check), “+0.015”.
In the case of `CCCCCCCCCCCCCCCc1cccc(OC(CC)C(=O)Nc2nnc(OCC)s2)c1` (stereo not drawn) [R], in series [1] (setting [3]), the Speed entry was “+0.31 stop”. In addition, the “Delta Interimage” value in series [2] (setting [4]) is reported as “+0.005”.
Consider `CCCCCCCCC(CCCCCC)CSc1nnc(NC(=O)COc2ccc(C(C)(C)CC)cc2C(C)(C)CC)s1` (stereo not drawn) [S], for which the Speed result in series [1] (setting [3]) is “+0.48 stop”; in series [1] (setting [7]) it was “+0.30 stop”. Further, the “Delta Interimage” value in series [2] (setting [4]) is “+0.016”; in series [2] (Layer 9 Method B, vs check), “+0.017”.
Take `CCCCCCCCCCCCCCCc1cccc(OC(CC)C(=O)Nc2nnc(C(C)(C)C)s2)c1` (stereo not drawn) [U]: the Speed entry in series [1] (setting [3]) is listed as “+0.42 stop”. Further, the “Delta Interimage” value in series [2] (setting [4]) is recorded as −0.002.
`CCCCCCCCCCCCCCCc1cccc(OCC(=O)Nc2nnc(SCC(CC)CC)s2)c1` [X]: the Speed result in series [1] (setting [3]) is recorded as “+0.28 stop”; in series [1] (setting [7]), “+0.23 stop”. Besides, the “Delta Interimage” value in series [2] (setting [4]) is listed as “+0.008”; in series [2] (Layer 9 Method B, vs check), “+0.008”.
